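HEK293 human embryonic kidney cells treated for 16 hours, with caspase-3/7 activity read by a luminescent substrate and scaled to controls.
Percent caspase activation at the highest tested level, where DMSO is 0% and 100 µM tamoxifen is 100%; higher values mean stronger activation.
Active means a full curve with a good fit, or a partial curve with a good fit and high efficacy; a flat curve is inactive; anything else is inconclusive.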

Values are in %.
Common to all entries: at 92.2 µM (top of the series).
All entries here are filed as inconclusive.
Only part of the assay is shown, chiefly results filed as inconclusive.

| Compound | caspase-3 activation (%) |
|---|---|
| `c1ccc(N=Nc2ccccc2)cc1` | 40.09 |
| `ClC1=C(Cl)C2(Cl)C3C4C=CC(C4)C3C1(Cl)C2(Cl)Cl` (stereo not drawn) | 74.5 |
| `CC(=O)[C@H]1CC[C@H]2[C@@H]3CCC4=CC(=O)CC[C@]4(C)[C@H]3CC[C@]12C` | 80.28 |
| `Nc1c2ccccc2nc2ccccc12` | 36.35 |
| `Oc1ccc(Cl)cc1Cc1cc(Cl)ccc1O` | 31.36 |
| `C(=NC1CCCCC1)=NC1CCCCC1` | 73.46 |
| `CC/C(=C(\c1ccccc1)c1ccc(OCCN(C)C)cc1)c1ccc(O)cc1` | 32.23 |
| `CC(=O)O[C@]1(C(C)=O)CC[C@H]2[C@@H]3C[C@H](C)C4=CC(=O)CC[C@]4(C)[C@H]3CC[C@@]21C` | 50.68 |
| `COc1cccc2c1C(=O)c1c(O)c3c(c(O)c1C2=O)C[C@@](O)(C(C)=O)C[C@@H]3O[C@H]1C[C@H](N)[C@H](O)[C@H](C)O1` | -0.1112 |
| `CCCCCCCC[N+](CCCCCCCC)(CCCCCCCC)CCCCCCCC` | -1.661 |

For reference, 2 entries once more:

| Compound | caspase-3 activation (%) |
|---|---|
| `ClC1=C(Cl)C2(Cl)C3C4C=CC(C4)C3C1(Cl)C2(Cl)Cl` (stereo not drawn) | 74.5 |
| `CC(=O)[C@H]1CC[C@H]2[C@@H]3CCC4=CC(=O)CC[C@]4(C)[C@H]3CC[C@]12C` | 80.28 |

Source: PubChem BioAssay AID664 (NCATS, 2007).